{"sequences": {"note": "Sequences of proteins named here, by UniProt entry; tags and fusion partners are left off.", "UniProt Q8NER1, whole entry, looked up": "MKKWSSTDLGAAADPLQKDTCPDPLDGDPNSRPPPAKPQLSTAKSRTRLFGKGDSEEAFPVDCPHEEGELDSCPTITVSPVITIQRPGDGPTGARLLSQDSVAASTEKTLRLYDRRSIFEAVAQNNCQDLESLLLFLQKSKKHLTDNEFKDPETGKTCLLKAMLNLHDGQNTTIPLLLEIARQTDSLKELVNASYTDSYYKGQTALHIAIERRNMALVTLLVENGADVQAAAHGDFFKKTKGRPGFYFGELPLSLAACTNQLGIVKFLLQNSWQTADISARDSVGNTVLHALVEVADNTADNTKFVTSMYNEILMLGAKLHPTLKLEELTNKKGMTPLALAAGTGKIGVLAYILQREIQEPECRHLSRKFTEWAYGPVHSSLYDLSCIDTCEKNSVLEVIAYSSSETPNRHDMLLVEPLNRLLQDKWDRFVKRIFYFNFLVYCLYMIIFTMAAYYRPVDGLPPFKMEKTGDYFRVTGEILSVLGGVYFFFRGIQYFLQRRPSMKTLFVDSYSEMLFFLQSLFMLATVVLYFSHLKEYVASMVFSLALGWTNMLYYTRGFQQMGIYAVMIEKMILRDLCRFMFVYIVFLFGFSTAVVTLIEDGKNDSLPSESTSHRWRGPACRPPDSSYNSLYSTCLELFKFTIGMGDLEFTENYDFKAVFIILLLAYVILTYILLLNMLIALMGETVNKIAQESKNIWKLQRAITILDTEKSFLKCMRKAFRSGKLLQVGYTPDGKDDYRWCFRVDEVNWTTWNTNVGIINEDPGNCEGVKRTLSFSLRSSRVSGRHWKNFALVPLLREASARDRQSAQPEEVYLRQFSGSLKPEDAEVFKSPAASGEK"}, "source": "PubChem BioAssay AID540275", "about": "(National Center for Advancing Translational Sciences (NCATS), 2011)", "note": "Among all 320,000 compounds or so, about 620 (0.19%) were called active. This list was built around the results that the source calls inconclusive (neither active nor inactive); the mix of calls is not that of the screen. No stated cut-off is given here; in the data, active means activation above about 80%; inconclusive means between about 30% and that limit; inactive means weaker than that."}
{"biological_target": "Transient receptor potential cation channel subfamily V member 1 (Homo sapiens) (UniProt Q8NER1)", "assay": "HTS Assay for Compounds that Act as Agonists of the Vanilloid Receptor 1; further: 0% is about no effect", "details": "TRPV1-expressing cells, Fluo-8 calcium influx, agonist mode; at 8.33 µM, active compounds read high", "outline": "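Cells expressing TRPV1 were dye-loaded with Fluo-8 and read kinetically: 10 s baseline, 3 min after compound (agonist portion), then 2 min after EC20 capsaicin (allosteric enhancer portion). Calcium-bound dye fluorescence at 480/520 nm.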"}
{"smiles": "CCC(C)Oc1cccc(C(=O)Nc2ccccc2N2CCOCC2)c1", "note": "(configuration not stated)", "activation": "inconclusive: 42.3%"}
{"smiles": "Clc1ccc2oc(-c3ccccc3)cc(=NCCCN3CCOCC3)c2c1", "activation": "inconclusive: 37.1%"}
{"smiles": "CCCCCCCCCS(=O)(=O)N/N=C/c1cccc([N+](=O)[O-])c1", "activation": "inconclusive: 32.3%"}
{"smiles": "Cc1nc(CC(=O)c2ccc(O)c(C)c2O)cs1", "activation": "inconclusive: 41.2%"}
{"smiles": "CC(C)(C)OC(=O)CC[C@@H](C(=O)NCCCCCCCCCCC(=O)N1CCN(C(=O)OC(C)(C)C)CC1)n1cc(CCCCCNC(=O)OC(C)(C)C)nn1", "activation": "inactive: -0.142%"}
{"smiles": "O=C(COC(=O)CCSc1ccc(Cl)cc1)NCc1ccco1", "activation": "inconclusive: 35.7%"}
{"smiles": "CCCn1c(=S)[nH]c2cc(C(=O)N3CCN(C4CCCCC4)CC3)ccc2c1=O", "activation": "inactive: -1.11%"}
{"smiles": "Cc1ccc(S(=O)(=O)N(CC(=O)Nc2cccnc2)c2ccccc2C)cc1", "activation": "inconclusive: 47.5%"}
{"smiles": "Cc1sc(NC(=O)c2ccco2)nc1-c1ccccc1", "activation": "inconclusive: 77.7%"}
{"smiles": "CCc1nonc1NC(=O)c1oc2ccccc2c1C", "activation": "inconclusive: 30%"}
{"smiles": "O=C(COc1ccc(S(=O)(=O)N2CCCCC2)cc1)NCc1ccncc1", "activation": "inconclusive: 34.5%"}
{"smiles": "O=C(Nc1nccs1)c1ccc(-c2cccc([N+](=O)[O-])c2)o1", "activation": "inconclusive: 34.1%"}
{"smiles": "C[C@H]1CCC(=O)N(CCSc2ccc(Br)cc2)CC1", "activation": "inconclusive: 66%"}
{"smiles": "CCCc1cc(=O)oc2c3c(cc(OCC(=O)NCc4ccccn4)c12)OC(C)(C)CC3", "activation": "inconclusive: 31.2%"}
{"smiles": "O=C(COc1cccc2ccccc12)N/N=C/c1ccncc1", "activation": "inconclusive: 39.2%"}
{"smiles": "COc1cc(/C=C(/C#N)c2ccc(F)cc2)ccc1Oc1ccc([N+](=O)[O-])cn1", "activation": "inactive: 1.98%"}
{"smiles": "CCCCNC(=O)Cn1c(=O)oc2cc(S(=O)(=O)N3CC(C)CC(C)C3)ccc21", "note": "(configuration not stated)", "activation": "inconclusive: 31.9%"}
{"smiles": "Cn1c(=O)c2c(nc(NCc3ccc4c(c3)OCO4)n2Cc2ccccc2)n(C)c1=O", "activation": "inactive: -0.139%"}
{"smiles": "CC(=O)N1CCCN(Cc2cn(-c3cccc(C)c3)nc2-c2cccc(F)c2)CC1", "activation": "inconclusive: 40%"}
{"smiles": "OC1CCCN(C(=S)NCc2ccccc2)C1", "note": "(configuration not stated)", "activation": "inactive: 1.76%"}
{"smiles": "CCN(CC)CCN(Cc1cc2ccc(C)cc2[nH]c1=O)C(=O)Nc1ccc(Cl)cc1", "activation": "inconclusive: 49.4%"}
{"smiles": "O=C(Nc1ccccc1)N1CCN(Cc2ccc3c(c2)OCO3)CC1", "activation": "inconclusive: 46.6%"}
{"smiles": "COc1ccc(OC)c(NC2=NC3(CCCCC3)N=C(N)N2)c1", "activation": "inactive: -0.108%"}
{"smiles": "CCCCc1cc(=O)oc2cc(OCc3nn[nH]n3)c(Cl)cc12", "activation": "inactive: 0.397%"}
{"smiles": "COCCNC(=O)Cc1c(C)c2c(cc(C)c3c(C(C)(C)C)coc32)oc1=O", "activation": "inconclusive: 46.6%"}
{"smiles": "CCc1cc(C(=O)N2CCN(c3ccccn3)CC2)sc1C", "activation": "inconclusive: 46.7%"}
{"smiles": "CCCCN1C(=O)/C(=C/C=C2/CC(C)(C)CN2C)SC1=S", "activation": "inconclusive: 36.3%"}
{"smiles": "CSc1ccc2c(c1)C(N1CCN(C)CC1)Cc1ccccc1S2", "note": "(configuration not stated)", "activation": "inactive: 11.7%"}
{"smiles": "Cc1ccc(Nc2cc(C)nc3ccc(C)cc23)cc1", "activation": "inactive: 26.8%"}
{"smiles": "CC(C)c1ccccc1OCC(=O)Nc1ccc2[nH]ncc2c1", "activation": "inconclusive: 56.9%"}
{"smiles": "Cc1c(C(=O)OC2CCCC2)[nH]c2c1C(=O)CC(c1ccco1)C2", "note": "(configuration not stated)", "activation": "inconclusive: 67.1%"}
{"smiles": "Cc1ccc(C(=O)NCc2ccc3c(c2)OCO3)cc1S(=O)(=O)N1CCCCC1", "activation": "inconclusive: 45%"}
{"smiles": "O=C(CSc1ncccn1)N/N=C/c1cccc(OC2CSC2)c1", "activation": "inactive: 1.83%"}
{"smiles": "COc1ccc(OC)c(CN2CCN(C(=O)CCC(=O)c3cccs3)CC2)c1", "activation": "inactive: 1.32%"}
{"smiles": "CC1=CC(C)(C)Nc2ccc(C)cc21", "activation": "inactive: 2.53%"}
{"smiles": "CCN(CC)CCOC(=O)c1ccc([N+](=O)[O-])cc1", "activation": "inactive: -2.72%"}
{"smiles": "CC1(C)Cc2c(C#N)c(SCc3nc4ccccc4[nH]3)nc(N3CCOCC3)c2CO1", "activation": "inconclusive: 51%"}
{"smiles": "Cc1nc2ccc([N+](=O)[O-])cc2c(=O)n1Cc1ccc(Cl)cc1", "activation": "inactive: -0.454%"}
{"smiles": "CCOC(=O)CN1C(=O)/C(=C/c2c(F)cccc2Cl)Oc2ccccc21", "activation": "inconclusive: 42.6%"}
{"smiles": "Cc1ccc(OCCn2c(=S)[nH]c3ccccc32)c(C(C)C)c1", "activation": "inconclusive: 43.5%"}
{"smiles": "COc1cc(OC)cc(N(C(=O)c2ccco2)C(C(=O)NC2CCCC2)c2ccc(N(C)C)cc2)c1", "note": "(configuration not stated)", "activation": "inconclusive: 30.4%"}
{"smiles": "COc1ccccc1-c1nnc(NC(=O)c2ccc(S(=O)(=O)N(C)CC3CCCO3)cc2)o1", "note": "(configuration not stated)", "activation": "inactive: -1.88%"}
{"smiles": "Cc1cccc(C(=O)NC2CCCCCCC2)c1", "activation": "inconclusive: 47%"}
{"smiles": "Cn1c(=O)c2c(nc(N3CCCCC3)n2CCSc2nc3ccccc3s2)n(C)c1=O", "activation": "inconclusive: 31.7%"}
{"smiles": "CCOC(=O)c1c(-c2cccs2)csc1NC(=O)CN(CC)CC", "activation": "inconclusive: 33.5%"}
{"smiles": "O=C(Nc1ccc(F)cc1)C(=O)c1c(O)[nH]c2ccc([N+](=O)[O-])cc12", "activation": "inactive: -4.09%"}
{"smiles": "CC(=O)NC(=O)c1nnn(Cc2ccccc2)c1NC(C)=O", "activation": "inactive: -0.814%"}
{"smiles": "O=C1OC2(c3ccccc31)c1cc(I)c(O)c(I)c1Oc1c2cc(I)c(O)c1I", "activation": "active: 88.1%"}
{"smiles": "CC(=O)Nc1ccccc1/C=C/c1ccc2c(C)ccc(O)c2n1", "activation": "inactive: -5.45%"}
{"smiles": "Cc1cc(SCC(=O)NCCC2=CCCCC2)nc2ccccc12", "activation": "inconclusive: 37.8%"}
{"smiles": "COc1ccc(CNC(=O)CN(Cc2ccccc2)S(=O)(=O)c2ccc(Cl)cc2)cc1", "activation": "inconclusive: 64.3%"}
{"smiles": "CCOc1c(Nc2ccc(C(C)C)cc2)c(=O)c1=O", "activation": "active: 83.4%"}
{"smiles": "CCN(CC)C(=O)C(Sc1nnnn1-c1ccc(O)cc1)c1ccccc1", "note": "(configuration not stated)", "activation": "inconclusive: 33.9%"}
{"smiles": "COc1cc(SC)ccc1C(=O)Nc1ncc(C)s1", "activation": "inconclusive: 34.2%"}
{"smiles": "O=C(NC(=S)NNC(=O)c1ccccc1[N+](=O)[O-])c1ccc(Br)cc1", "activation": "inactive: 14.5%"}
{"smiles": "O=S(=O)(c1ccc2c(c1)OCCO2)N1CCCN(S(=O)(=O)c2c(F)cccc2F)CC1", "activation": "inactive: 6.4%"}
{"smiles": "CC(=O)Nc1ccc(NC(=O)CCCSc2nc3ccccc3s2)cc1", "activation": "inconclusive: 43.8%"}
